Reference: patent US20090221095A1, “Colorimetric Screening of DNA Binding/Intercalating Agents with Gold Nanoparticle Probes” (NORTHWESTERN UNIVERSITY, priority 2005, published 2009)
For at least one compound, name, drawing or mass did not settle the structure.

Legend:
Type in all cases: binding
[1] = tested on: triplex DNA (NP-1/DNA-3/NP-2); assay: Colorimetric triplex binder assay: aggregation of NP-1, NP-2 gold nanoparticles and free DNA-3; conditions: NP-1 and NP-2 1.5 nM each, DNA-3 150 nM, binder 5 μM, 10 mM PBS pH 7.0, NaCl 0.5 M, room temperature
From the text: This method utilizes the aggregation-induced, red-to-blue color change associated with 13 nm gold (Au) nanoparticles. The assay consists of two sets of gold nanoparticles NP-1 and NP-2, and a free strand of DNA, DNA-3. […] DNA-3 is complementary to NP-1 with a two base dangling end to prevent noncross-linked NP-1 aggregation. When NP-1 and DNA-3 are combined, they form nonaggregate linking duplexes on the nanoparticle surface. […] However, introduction of a strong triplex binding agent, benzo[e]pyridoindole (BePl), stabilizes triplex formation through Hoogsteen-type Py-PaPy triplet base hydrogen bonds and induces nanoparticle aggregation resulting in a concomitant red-to-blue color change due to a red-shifting and dampening of the nanoparticle plasmon resonance (Scheme 1).
This assay is prepared by combining NP-1 and NP-2 (1.5 nM each) in a 1:1 molar ratio in 10 mM PBS buffer (pH=7.0, NaCl 0.5 M) with DNA-3 (150 nM) and BePl (5 μM). […] This stabilization results in a dramatic decrease in absorbance at 520 nm accompanied by a red-to-blue color change. Note that in the absence of DNA-3, NP-1 and NP-2 cannot form aggregates even in the presence of a strong triplex binder (FIG. 1B). […]

[2] = tested on: triplex DNA (DNA-1, DNA-2, DNA-3); assay: UV melting (260 nm) of unmodified triplex DNA-1, DNA-2, DNA-3 (no nanoparticles); conditions: duplex melting transition; solution-phase unmodified DNA, 1 μM each strand, 6 μM binder, 0.5 M NaCl 10 mM PBS
Method: To compare the results from the previous examples with more traditional screening techniques, all eight intercalators were screened, plus a control, by monitoring UV absorbance melting curves (260 nm) of unmodified DNA-1, DNA-2, and DNA-3 (1 μM each), with each intercalator (10 μM), (DNA-1; 3′ TTCTTCTTTTTT CT-5′. DNA-2: 5′-TTCTTCTTTTTTCT-3′, DNA-3: 5′-AAGAAGAAAAAA-3′). (FIG. 2B). The melting experiment performed in the presence of BePl has two melting transitions. The first Tm at 34.8° C. is associated with the denaturation of the triplex structure and the second Tm at 61.4° C. is representative of the corresponding duplex.
To determine the Tm of the duplex DNA in the presence of DNA binders, 2 μM duplex DNA and 5 μM DNA binder were combined in 0.3 M NaCl 10 mM PBS. […] UV-vis melting curves were measured on a CARRY 500 spectrophotometer equipped with a circulating bath. The melting process was monitored by measuring the change in extinction at 260 nm. […]
A melting transition associated with the triple helix was found only for experiments performed in the presence of BePI (34.8° C.) and CORA (17.1° C.) where BePI is determined to be the stronger binder. This is in agreement with the results determined by the chip-based scanometric method described above.

[3] = tested on: duplex DNA between NP-1 and NP-2; assay: Melting temperature of NP-1/NP-2 gold nanoparticle duplex nanoassemblies (520 nm); conditions: NP-1 and NP-2 1.5 nM each, intercalator 5 μM, 10 mM PBS pH 7.0, NaCl 0.1 M, control 26.4
From the text: This method also utilizes the aggregation-induced, red-to-blue color change associated with 13 nm Au nanoparticles. Gold nanoparticles are functionalized with one of two complementary thiol-modified oligonucleotide strands and are denoted NP-1 and NP-2. When NP-1 and NP-2 are combined, they form aggregates through a reversible DNA hybridization process. This process results in a red-to-blue color change due to a red-shifting and dampening of the nanoparticle plasmon resonance. Increasing the temperature above the melting temperature of the DNA reverses the process, and the particles dissociate with a concomitant blue-to-red color change. […] This increased stability is reflected by an increase in melting temperature. Note that the shape and breadth of the transition is almost independent of the intercalator (FIG. 4). Therefore, by monitoring the blue-to-red color transition of hybridized oligonucleotide-modified Au nanoparticles in the presence of different compounds, the relative strength of intercalator binding can be determined with the naked-eye. […]

[4] = tested on: unmodified duplex DNA (DNA-1: 5′-TAACAATAA-3′, DNA-2: 5′-TTATTGTTA-3′); assay: Melting temperature of solution-phase unmodified duplex DNA (no nanoparticles)
Method: The assay is initiated by mixing NP-1 and NP-2 (1.5 nM each) in a 1:1 molar ratio in 10 mM PBS buffer (pH=7.0, NaCl 0.1 M. The melting temperatures of the nanoassemblies (NP-1 and NP-2) were then determined in the presence of 4′,6-diamidino-2-phenylindole (DAPI), ellipticine (EIPT), Amsacrine (AMSA), daunorubicin (DNR), anthraquinone-2-carboxylic acid (AQ2A), ethidium bromide (EB), and 9-aminoacridine (9-AA) (5 μM), respectively. UV melting profiles were measured by monitoring the absorbance at 520 nm at a scan rate of 0.5° C. min^−1. Melting temperatures were determined by taking the maxima of the first derivative of the melting curves. Control experiments were run by determining the melting temperatures of unmodified duplex DNA (DNA-1: 5′-TAACAATAA-3′, DNA-2: 5′-TTATTGTTA-3′) in the presence of all seven intercalators shown in Table 1.
To determine the Tm of the duplex DNA in the presence of DNA binders, 2 μM duplex DNA and 5 μM DNA binder were combined in 0.3 M NaCl 10 mM PBS. To determine the Tm of the triplex DNA in the presence of DNA binders, 1 μM of each strand and 6 μM of each DNA binder were combined in 0.5 M NaCl 10 mM PBS. UV-vis melting curves were measured on a CARRY 500 spectrophotometer equipped with a circulating bath. The melting process was monitored by measuring the change in extinction at 260 nm. […]

[5] = tested on: duplex DNA between NP-1 and NP-2; assay: Naked-eye color change of NP-1/NP-2 nanoassembly at specific temperatures
From the text: This method also utilizes the aggregation-induced, red-to-blue color change associated with 13 nm Au nanoparticles. Gold nanoparticles are functionalized with one of two complementary thiol-modified oligonucleotide strands and are denoted NP-1 and NP-2. When NP-1 and NP-2 are combined, they form aggregates through a reversible DNA hybridization process. This process results in a red-to-blue color change due to a red-shifting and dampening of the nanoparticle plasmon resonance. Increasing the temperature above the melting temperature of the DNA reverses the process, and the particles dissociate with a concomitant blue-to-red color change. […] This increased stability is reflected by an increase in melting temperature. Note that the shape and breadth of the transition is almost independent of the intercalator (FIG. 4). Therefore, by monitoring the blue-to-red color transition of hybridized oligonucleotide-modified Au nanoparticles in the presence of different compounds, the relative strength of intercalator binding can be determined with the naked-eye.
In general, assay methods that can detect drug candidates by the naked eye, without resorting to any instrumentation, are convenient, and for this reason, an assay that could seem for drug candidates based on DNA intercalation would be of great interest. […]

[6] = tested on: duplex DNA on chip surface; assay: Chip-based scanometric detection of duplex DNA binders (silver enhancement); conditions: hybridization at 30° C., binder 5 μM
Method: N-Hydroxysuccinimide-activated Codelink glass microarray slides (Amersham, G. E. Healthcare) were arrayed with amine-terminated oligonucleotides (5′-TAA CAA TAA-A10-NH2-3′, Integrated DNA Technologies, Inc.) according to the manufacturer's protocol. The oligonucleotides were printed in triplicate using a GME 418 robotic pin-and-ring microarrayer (Affymetrix).
For scanometric detection of duplex or triplex DNA binding molecules, Au nanoparticles (1 nM) and DNA binding molecules (5 μM) in 10 mM PBS buffer of varying NaCl concentrations were added to the microarray slide under hybridization wells (Nanosphere, Inc.). For detection of triplex binders, 150 nM DNA-3 was added. DNA hybridization proceeded for 30 min (for duplex DNA binders) or 1 h (for triplex DNA binders) in a humidity chamber. […] Light-scattering images from the silver-enhanced chips were recorded using the high-resolution Verigene ID system (Nanosphere, Inc.). […]
The hybridization of single stranded DNA to form duplex DNA is a reversible process and the stability of the duplex is affected by several factors such as temperature and salt concentration. […] Therefore, by performing the nanoparticle hybridization process in the presence of different duplex DNA binders as a function of temperature, the relative binding strength of duplex DNA binders can be determined.

[7] = tested on: triplex DNA on chip surface; assay: Chip-based scanometric detection of triplex DNA binders (silver enhancement); conditions: varying salt concentrations (0.1 to 0.3 M NaCl), binder 5 μM, DNA-3 150 nM
Method: For scanometric detection of duplex or triplex DNA binding molecules, Au nanoparticles (1 nM) and DNA binding molecules (5 μM) in 10 mM PBS buffer of varying NaCl concentrations were added to the microarray slide under hybridization wells (Nanosphere, Inc.). For detection of triplex binders, 150 nM DNA-3 was added. DNA hybridization proceeded for 30 min (for duplex DNA binders) or 1 h (for triplex DNA binders) in a humidity chamber. After hybridization, the slides were washed three times with 0.5 M NaNO3 containing 0.02% Tween 20. The arrays were dried using a benchtop spinner. Silver enhancement solution (Nanosphere, Inc.) was added for Au-NP signal amplification (1 mL total volume/array, 1.5-min development time for duplex DNA binding molecules and 3 min for triplex binding molecules). The reaction was terminated by washing the slides with NANOpure® water and spin-drying. Light-scattering images from the silver-enhanced chips were recorded using the high-resolution Verigene ID system (Nanosphere, Inc.).
Capture strands of synthetic oligonucleotides are patterned on a glass chip using a microarrayer. The DNA chip is then exposed to a solution containing three components: 1) complementary DNA (no nanoparticles), 2) DNA functionalized Au nanoparticles (DNA is non-complementary to the arrayed DNA) and 3) DNA binders, Scheme 4. […]

Structure (SMILES): CC[n+]1c(-c2ccccc2)c2cc(N)ccc2c2ccc(N)cc21 [EB, ethidium bromide]
- nanoparticle aggregation (decrease in absorbance at 520 nm, red-to-blue color change) [1]: no nanoparticle aggregation
- Tm 2-1 [2]: 59.8 °C
- Tm^a, melting temperature of nanoassemblies [3]: 37.8 °C
- Tm, melting temperature of solution-phase unmodified DNA ([4]; 2 uM duplex DNA, 5 uM DNA binder, control (no DNA binder) 19.1): 21.8 °C
- relative trend in binding strength ([4]; from control experiments, Tm of solution-phase unmodified DNA (Table 2)): DAPI>DNR>EB>other intercalators
- color of nanoassembly ([5]; 30° C., NP-1 and NP-2 1.5 nM each, intercalator 5 μM): blue/purple
- trend of intercalator binding affinities for DNA ([5]; from the color change with temperature): DAPI>DNR˜EB>other intercalators
- signal after silver enhancement [6]: leaving the intermediate and strong DNA binders
- scanometric signal [7]: No signal
